Measured values as given in the supplement of paper PMC4604168 (melanoma cell lines).
This is one part of the list. Repeats are few or missing, and single values can be far off.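 The apoptosis fraction was the count of cleaved-PARP antibody-stained nuclei relative to all DNA-stained nuclei, imaged in 1,536-well plates. Screening doses were set so most cells survived, and baseline and induced cleaved-PARP levels vary greatly across cell lines.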

Each compound was assayed on IPC-298 (assay: cleaved PARP positive nuclei fraction relative to DMSO control; melanoma cells; higher = more apoptosis). Details: library dose: low library concentration; 72 h.

Compared with `C[C@]1(O)C[C@@H](c2nc(-c3ccc4ccc(-c5ccccc5)nc4c3)c3c(N)nccn32)C1` + CC(=O)O[C@@]12CO[C@@H]1C[C@H](O)[C@@]1(C)C(=O)[C@H](O)C3=C(C)[C@@H](OC(=O)[C@H](O)[C@@H](NC(=O)OC(C)(C)C)c4ccccc4)C[C@@](O)([C@@H](OC(=O)c4ccccc4)[C@H]21)C3(C)C [Docetaxel] (first compound 0.4 µM, partner dose 0.0001 µM), `NC1(c2ccc(-c3nc4ccn5c(=O)[nH]nc5c4cc3-c3ccccc3)cc2)CCC1` + C[C@@H](Oc1cc(-c2cnn(C3CCNCC3)c2)cnc1N)c1c(Cl)ccc(F)c1Cl [Crizotinib] (first compound 0.4 µM, partner dose 0.2 µM) is lower in “cleaved PARP positive nuclei fraction” value: 291% for the first, 81.7% for the second.

Going from `CC1(C)CCC(c2ccc(Cl)cc2)=C(CN2CCN(c3ccc(C(=O)NS(=O)(=O)c4ccc(N[C@H](CCN5CCOCC5)CSc5ccccc5)c(S(=O)(=O)C(F)(F)F)c4)cc3)CC2)C1` + Cn1sc(=O)n(Cc2ccccc2)c1=O [TDZD-8] (first compound 0.4 µM, partner dose 0.4 µM) to `NC1(c2ccc(-c3nc4ccn5c(=O)[nH]nc5c4cc3-c3ccccc3)cc2)CCC1` + CO[C@H]1C[C@@H]2CC[C@@H](C)[C@@](O)(O2)C(=O)C(=O)N2CCCC[C@H]2C(=O)O[C@H]([C@H](C)C[C@@H]2CC[C@@H](OCCO)[C@H](OC)C2)CC(=O)[C@H](C)/C=C(\C)[C@@H](O)[C@@H](OC)C(=O)[C@H](C)C[C@H](C)/C=C/C=C/C=C/1C [everolimus] (first compound 0.4 µM, partner dose 0.02 µM), the “cleaved PARP positive nuclei fraction” value falls from 85.8% to 80.7%.

First: C[C@]1(O)C[C@@H](c2nc(-c3ccc4ccc(-c5ccccc5)nc4c3)c3c(N)nccn32)C1 + OCc1c[nH]c2ccccc12 [Indole-3-carbinol] (first compound 0.4 µM, partner dose 0.8 µM)
Second: C[C@@H](N)c1ccc(C(=O)Nc2ccnc3[nH]ccc23)cc1 + CC(C)C[C@H](NC(=O)[C@H](Cc1ccccc1)NC(=O)c1cnccn1)B(O)O [Bortezomib] (first compound 0.4 µM, partner dose 0.001 µM)
The “cleaved PARP positive nuclei fraction” value of the first is higher: 61.6% for the first, 48.3% for the second.

First: CN(c1ncccc1CNc1nc(Nc2ccc3c(c2)CC(=O)N3)ncc1C(F)(F)F)S(C)(=O)=O + C[C@]1(c2nc3c(C(N)=O)cccc3[nH]2)CCCN1 [Veliparib] (first compound 0.08 µM, partner dose 1.4 µM)
Second: C[C@]1(O)C[C@@H](c2nc(-c3ccc4ccc(-c5ccccc5)nc4c3)c3c(N)nccn32)C1 + CCCS(=O)(=O)Nc1ccc(F)c(C(=O)c2c[nH]c3ncc(Cl)cc23)c1F [PLX4720] (first compound 0.4 µM, partner dose 0.08 µM)
The “cleaved PARP positive nuclei fraction” value of the first is lower: 40.3% for the first, 127% for the second.

Compared with `CN(c1ncccc1CNc1nc(Nc2ccc3c(c2)CC(=O)N3)ncc1C(F)(F)F)S(C)(=O)=O` + Cn1c(=O)n(-c2ccc(C(C)(C)C#N)cc2)c2c3cc(-c4cnc5ccccc5c4)ccc3ncc21 [NVP-BEZ235] (first compound 0.08 µM, partner dose 0.004 µM), `C[C@]1(O)C[C@@H](c2nc(-c3ccc4ccc(-c5ccccc5)nc4c3)c3c(N)nccn32)C1` + CS(=O)(=O)CCNCc1ccc(-c2ccc3ncnc(Nc4ccc(OCc5cccc(F)c5)c(Cl)c4)c3c2)o1 [lapatinib] (first compound 0.4 µM, partner dose 0.8 µM) is higher in “cleaved PARP positive nuclei fraction” value: 46.1% for the first, 79.5% for the second.

First: NC(=O)c1ccc(N(C(N)=O)c2c(F)cccc2F)nc1-c1ccc(F)cc1F + CC(=O)c1c(C)c2cnc(Nc3ccc(N4CCNCC4)cn3)nc2n(C2CCCC2)c1=O [palbociclib] (first compound 0.4 µM, partner dose 0.04 µM)
Second: C[C@]1(O)C[C@@H](c2nc(-c3ccc4ccc(-c5ccccc5)nc4c3)c3c(N)nccn32)C1 + Cc1cc(Nc2cc(N3CCN(C)CC3)nc(/C=C/c3ccccc3)n2)n[nH]1 [ENMD2076] (first compound 0.4 µM, partner dose 0.04 µM)
The “cleaved PARP positive nuclei fraction” value of the first is higher: 89.7% for the first, 88.4% for the second.

Compared with `CN(c1ncccc1CNc1nc(Nc2ccc3c(c2)CC(=O)N3)ncc1C(F)(F)F)S(C)(=O)=O` + CCCS(=O)(=O)Nc1ccc(F)c(C(=O)c2c[nH]c3ncc(Cl)cc23)c1F [PLX4720] (first compound 0.08 µM, partner dose 0.08 µM), `NC(=O)c1ccc(N(C(N)=O)c2c(F)cccc2F)nc1-c1ccc(F)cc1F` + CCCCCCCCc1ccc(CCC(N)(CO)CO)cc1 [fingolimod] (first compound 0.4 µM, partner dose 2 µM) is higher in “cleaved PARP positive nuclei fraction” value: 46.2% for the first, 114% for the second.

Going from `CCCCCCCCc1ccc(CCC(N)(CO)CO)cc1` [fingolimod] + Nc1nc(F)nc2c1ncn2[C@@H]1O[C@H](CO)[C@@H](O)[C@@H]1O [fludarabine] (first compound 2 µM, partner dose 0.2 µM) to `Cn1sc(=O)n(Cc2ccccc2)c1=O` + CC(C)C[C@H](NC(=O)[C@H](Cc1ccccc1)NC(=O)c1cnccn1)B(O)O [Bortezomib] (first compound 0.4 µM, partner dose 0.001 µM), the “cleaved PARP positive nuclei fraction” value falls from 93.4% to 62.5%.

Going from `CCCCCCCCc1ccc(CCC(N)(CO)CO)cc1` [fingolimod] + CC(=O)c1c(C)c2cnc(Nc3ccc(N4CCNCC4)cn3)nc2n(C2CCCC2)c1=O [palbociclib] (first compound 2 µM, partner dose 0.04 µM) to `Cn1sc(=O)n(Cc2ccccc2)c1=O` + CNC(=O)c1cc(Oc2ccc(NC(=O)Nc3ccc(Cl)c(C(F)(F)F)c3)cc2)ccn1 [sorafenib] (first compound 0.4 µM, partner dose 0.4 µM), the “cleaved PARP positive nuclei fraction” value falls from 91.3% to 43.1%.

Going from `CC(=O)O[C@@]12CO[C@@H]1C[C@H](O)[C@@]1(C)C(=O)[C@H](O)C3=C(C)[C@@H](OC(=O)[C@H](O)[C@@H](NC(=O)OC(C)(C)C)c4ccccc4)C[C@@](O)([C@@H](OC(=O)c4ccccc4)[C@H]21)C3(C)C` [Docetaxel] + Cc1cc(Nc2cc(N3CCN(C)CC3)nc(/C=C/c3ccccc3)n2)n[nH]1 [ENMD2076] (first compound 0.0001 µM, partner dose 0.04 µM) to `CC1(C)CCC(c2ccc(Cl)cc2)=C(CN2CCN(c3ccc(C(=O)NS(=O)(=O)c4ccc(N[C@H](CCN5CCOCC5)CSc5ccccc5)c(S(=O)(=O)C(F)(F)F)c4)cc3)CC2)C1` + CCCS(=O)(=O)Nc1ccc(F)c(C(=O)c2c[nH]c3ncc(Cl)cc23)c1F [PLX4720] (first compound 0.4 µM, partner dose 0.08 µM), the “cleaved PARP positive nuclei fraction” value rises from 120% to 418%.

Going from `CC(=O)O[C@@]12CO[C@@H]1C[C@H](O)[C@@]1(C)C(=O)[C@H](O)C3=C(C)[C@@H](OC(=O)[C@H](O)[C@@H](NC(=O)OC(C)(C)C)c4ccccc4)C[C@@](O)([C@@H](OC(=O)c4ccccc4)[C@H]21)C3(C)C` [Docetaxel] + Cn1c(Nc2ccc(C(F)(F)F)cc2)nc2cc(Oc3ccnc(-c4ncc(C(F)(F)F)[nH]4)c3)ccc21 [CHIR265] (first compound 0.0001 µM, partner dose 0.08 µM) to `COc1ccc(C2=N[C@@H](c3ccc(Cl)cc3)[C@@H](c3ccc(Cl)cc3)N2C(=O)N2CCNC(=O)C2)c(OC(C)C)c1` [Nutlin-3] + C=CCNC1=C2C[C@@H](C)C[C@H](OC)[C@H](O)[C@@H](C)/C=C(\C)[C@H](OC(N)=O)[C@@H](OC)/C=C\C=C(/C)C(=O)NC(=CC1=O)C2=O [Tanespimycin] (first compound 0.1 µM, partner dose 0.002 µM), the “cleaved PARP positive nuclei fraction” value falls from 446% to 81.2%.

Compared with `CN(c1ncccc1CNc1nc(Nc2ccc3c(c2)CC(=O)N3)ncc1C(F)(F)F)S(C)(=O)=O` + CS(=O)(=O)CCNCc1ccc(-c2ccc3ncnc(Nc4ccc(OCc5cccc(F)c5)c(Cl)c4)c3c2)o1 [lapatinib] (first compound 0.08 µM, partner dose 0.8 µM), `Cn1sc(=O)n(Cc2ccccc2)c1=O` + C[C@@H](Oc1cc(-c2cnn(C3CCNCC3)c2)cnc1N)c1c(Cl)ccc(F)c1Cl [Crizotinib] (first compound 0.4 µM, partner dose 0.2 µM) is lower in “cleaved PARP positive nuclei fraction” value: 279% for the first, 126% for the second.

`CCCCCCCCc1ccc(CCC(N)(CO)CO)cc1` [fingolimod] + CC(=O)O[C@@]12CO[C@@H]1C[C@H](O)[C@@]1(C)C(=O)[C@H](O)C3=C(C)[C@@H](OC(=O)[C@H](O)[C@@H](NC(=O)OC(C)(C)C)c4ccccc4)C[C@@](O)([C@@H](OC(=O)c4ccccc4)[C@H]21)C3(C)C [Docetaxel] (first compound 2 µM, partner dose 0.0001 µM) was tested, and the “cleaved PARP positive nuclei fraction” value was 272%.
For `CCCCCCCCc1ccc(CCC(N)(CO)CO)cc1` [fingolimod] + COCC[n+]1c2c(n(Cc3cnccn3)c1C)C(=O)c1ccccc1C2=O [YM155] (first compound 2 µM, partner dose 0.0004 µM), the “cleaved PARP positive nuclei fraction” value was 45.8%.
